Targets, with sequences 5′ to 3′:
T1: PreQ1 riboswitch RNA pseudoknot, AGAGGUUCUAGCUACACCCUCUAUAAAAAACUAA. From B. subtilis. About 24,000 compounds screened, about 170 hits.
T2: SAM-II riboswitch RNA pseudoknot, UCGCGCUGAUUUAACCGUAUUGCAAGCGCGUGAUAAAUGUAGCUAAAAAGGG. About 21,000 compounds screened, about 200 hits.
T3: TPP riboswitch RNA three-way junction, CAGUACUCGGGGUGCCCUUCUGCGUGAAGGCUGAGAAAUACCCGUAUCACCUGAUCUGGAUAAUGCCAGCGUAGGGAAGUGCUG. About 24,000 compounds screened, about 160 hits.

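The test is a small-molecule microarray: each compound is printed twice on a reactive slide, and binding shows as fluorescence of the labelled oligonucleotide after washing. The data file lists only calls. An earlier report of the laboratory on the PreQ1, TPP and SAM-II riboswitches (doi:10.1038/s41467-019-09493-3) used 1 µM RNA for 2 h and required a mean Z-score above 3 (spot signal-to-noise against the whole library), a score well above that on a control array, and duplicate spots agreeing (coefficient of variation under 100); it then also set aside compounds that hit other targets, which this list keeps. The cut-offs behind this list may differ. The calls come from the array alone, and fixing a compound to the slide can hide its binding.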
A compound is marked active if it was called a hit and inactive if it was screened but was not.
This is an unselected part of the compounds tested.
A target missing from an entry has no call listed here.
A dash means that no call is listed here.

* Cc1nn(-c2ccccc2)c(N)c1C#N : T1: inactive; T3: inactive
* COC(=O)N1CCN(Cc2cccc(NC(=O)Nc3ccc(C)nc3)c2F)CC1 : T1: inactive; T2: inactive; T3: inactive
* Cc1cc(C)n2c(Nc3ccccc3C)c(-c3cccs3)nc2n1 : T1: inactive; T2: inactive; T3: inactive
* O=C(c1ccccc1)c1ccc2nc(NCCO)c3nncn3c2c1 : T1: inactive; T2: inactive; T3: inactive
* COc1ccc(OCC(O)Cn2c(C)[n+](C)c3ccccc32)cc1 (stereo not drawn) : T1: inactive; T2: inactive; T3: inactive
* COC(=O)c1ccccc1Nc1c(-c2ccc3c(c2)OCO3)nc2cnccn12 : T1: inactive; T3: inactive
* O=C(CCN1CCC2(CC1)OCCCC2O)N1CCCC1 (stereo not drawn) : T1: inactive; T2: inactive; T3: inactive
* Nc1nc(=S)c2[nH]cnc2[nH]1 : T1: inactive; T2: inactive; T3: inactive
* Cn1nnnc1SCCNCc1nc(-c2ccco2)no1 : T1: inactive; T2: inactive; T3: inactive
* CCNC(=O)[C@@H]1C[C@@H](N)CN1C(=O)c1occc1C : T1: inactive; T2: inactive; T3: inactive
* COc1cc2c(Nc3ccc(NC(=O)c4ccccc4)cc3)ncnc2cc1OCCCN1CCOCC1 : T1: inactive; T2: inactive; T3: inactive
* COCc1cc(C)nc2sc3c(=O)n(CCO)c(CC(C)C)nc3c12 : T1: inactive; T2: inactive; T3: inactive
* CCC(CO)n1cc2c(c1-c1ccc(OC)cc1)c(=O)n(C)c(=O)n2C (stereo not drawn) : T1: inactive; T2: inactive; T3: inactive
* OC(CN1CCNCC1)Cn1c2ccccc2c2ccccc21 (stereo not drawn) : T1: inactive; T2: inactive; T3: inactive
* Cc1cc(C)cc(Nc2cc(C)nc3nncn23)c1 : T1: inactive; T3: inactive
* Cc1nc(-n2nc(C)c(Cc3ccccc3)c2C)sc1C(=O)NCCO : T1: inactive; T3: inactive
* CCn1c(CC2CCNCC2)nn(CC2CC(c3ccccc3)=NO2)c1=O (stereo not drawn) : T1: inactive; T2: inactive; T3: inactive
* Cc1ccc(Nc2cc(N3CCN(S(=O)(=O)c4cc(C)ccc4C)CC3)nc(C)n2)cc1 : T1: inactive; T3: inactive
* COC(=O)c1cccnc1N1CCC(CO)(Cc2cccc(C(F)(F)F)c2)CC1 : T1: inactive; T2: inactive; T3: inactive
* O=C(c1ccsc1)N1CCN(Cc2cncn2C2CC2)CC(O)C1 (stereo not drawn) : T1: inactive; T2: inactive; T3: inactive
* CCCC(=O)N1CCN(c2cc(Nc3ccc(C)cc3)nc(C)n2)CC1 : T1: inactive; T3: inactive
* Nc1ccc(-c2nc3c(ccc4ccccc43)[nH]2)cc1 : T1: inactive; T2: inactive; T3: inactive
* O=C1c2ccccc2C(Nc2ccccc2F)N1c1ccc(Cl)cc1 (stereo not drawn) : T1: inactive; T2: inactive; T3: inactive
* Nc1cccc(-c2cc3ccccc3oc2=O)c1 : T1: inactive; T2: inactive; T3: inactive
* O=C(NCCOCc1ccccc1)[C@@]12CNC[C@@H]1CN(C1CCCC1)C2 : T1: inactive; T2: inactive; T3: inactive
* NCC1(N2CCCCC2)CCCCC1 : T1: inactive; T2: inactive; T3: inactive
* COc1ccc(CCN)cc1-c1ccc(C(N)=O)cc1 : T1: inactive; T2: inactive; T3: inactive
* CCC(O)Cn1ncnc1-c1cc(N2CCCCC2)ccc1Cl (stereo not drawn) : T1: inactive; T2: inactive; T3: inactive
* C=CCn1cc(CNC(CC(C)(C)C)c2cccnc2)c(C)n1 (stereo not drawn) : T1: inactive; T2: inactive; T3: inactive
* Cc1ccccc1-c1ncc(-c2nccn2[C@@H]2CS(=O)(=O)C[C@H]2O)s1 : T1: inactive; T2: inactive; T3: inactive
* Cc1nnc2c(NCCCN3CCN(c4ccccc4)CC3)nc3ccccc3n12 : T1: inactive; T3: inactive
* c1cc(CNCc2ccc3c(c2)OCO3)c2cc[nH]c2c1 : T1: inactive; T2: inactive; T3: inactive
* CNc1nc(-c2ccc3c(N)n[nH]c3c2)cc(N2C[C@@H](C(=O)NC3CCCCC3)CC[C@@H]2C)n1 : T1: inactive; T2: inactive; T3: inactive
* CCCCCCNc1nc(CC)c2c(c1C#N)CC(C)(C)OC2 : T1: inactive; T2: inactive; T3: inactive
* OC1(CN2CCN(c3cnccn3)CC2)CNCCOC1 (stereo not drawn) : T1: inactive; T2: inactive; T3: inactive
* CN(C)c1ccc(N2CC(=O)C(c3nc(-c4ccccc4)cs3)=C2N)cc1 : T1: inactive; T3: inactive
* CCOC(=O)c1cnc2c(-c3ccc(Cl)cc3)c(CC)nn2c1N : T1: inactive; T3: inactive
* Cc1nc2c(c(=O)n1C)CN(CC1(O)CCCNC1)C2 (stereo not drawn) : T1: inactive; T2: inactive; T3: inactive
* Cn1c(=O)c2c(nc(NCCO)n2Cc2ccccc2)n(C)c1=O : T1: inactive; T2: inactive; T3: inactive
* O=C(O)c1cncc(Br)c1 : T1: inactive; T2: inactive; T3: inactive
* COC(=O)c1cccc(Nc2c3c(nc4ccccc24)CCC3)c1 : T1: inactive; T2: inactive; T3: inactive

For reference, 3 entries once more:

| SMILES | T1 | T2 | T3 |
|---|---|---|---|
| `CN(C)c1ccc(N2CC(=O)C(c3nc(-c4ccccc4)cs3)=C2N)cc1` | inactive | - | inactive |
| `O=C(NCCOCc1ccccc1)[C@@]12CNC[C@@H]1CN(C1CCCC1)C2` | inactive | inactive | inactive |
| `O=C(c1ccsc1)N1CCN(Cc2cncn2C2CC2)CC(O)C1` (stereo not drawn) | inactive | inactive | inactive |

Source: the ROBIN nucleic acid binder screens (doi:10.1002/anie.202211358).